Patent US20240002458A1, “NOVEL VHL SMALL MOLECULE PROBES” (St. Jude Children's Research Hospital, priority 2020, published 2024)

Biological target: GST-VCB protein complex (Homo sapiens, UniProt P40337)
Experiment: BODIPY FL VH032 (5)-mediated pVHL TR-FRET binding assay (competition)

Cc1ncsc1-c1ccc(CNC(=O)[C@@H]2C[C@@H](O)CN2C(=O)[C@@H](NC(=O)OC(C)(C)C)C(C)(C)C)cc1 [BOC-VH032 (8)]
sensitivity improvement of TR-FRET assay (Ki) over reported FAM-HIF-1α peptide (19-mer) FP assay (Kd): 3.09 fold and (3.09-fold)

A number of entries come with more than one value. This list holds those alone. There may be further records. The values listed for one entry differ for a reason that is not stated; they may come from other doses, times, organisms or constructs than stated.
